Tested on: beta-lactamases
Test: Cyclic voltammetry in the presence and absence of beta-lactamases
Assay type: biochemical
Details: 1 entire voltage cycle; signal only in positive samples

CC(C)(ON=C(C(=O)N[C@@H]1C(=O)N2C(C(=O)O)=C(C=Cc3ccc([N+](=O)[O-])cc3[N+](=O)[O-])CS[C@H]12)c1csc(N)n1)C(=O)O.O=C(O)C(F)(F)F [HMRZ-86, reference compound]
potential of the oxidation signal specific for the presence of beta-lactamases: +0.3 V vs. Ag/AgCl
